Literature values, collected in US20040219189A1 (priority 2001, published 2004).

Tested on: kainate receptors
Settings: Narita et al. 1993; cited from earlier work

NCCCC(=O)O [GABA, γ-aminobutyric acid]
inhibition of kainate-induced running activity in rat: not inhibited
